Measurements: patent publication US20090074680A1 (QUEEN MARY & WESTFIELD COLLEGE, priority 2005, published 2009)

Chains of the proteins cited; added tags and fusions are not shown. Lines headed by an entry give the natural chain unless they say otherwise; changes in a name come on top.
UniProt P02808: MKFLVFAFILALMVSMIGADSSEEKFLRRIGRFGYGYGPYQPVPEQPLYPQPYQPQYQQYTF

Experiment: peptide made by a vendor (Fmoc solid-phase peptide synthesis)
Settings: whole synthesis

DpSpSEEKFLRRIGRFGYGYGPY (DSSEEKFLRRIGRFGYGYGPY; Statherin phosphoserines at positions 2 and 3; UniProt P02808 20-40, looked up, fragment)
purity (crude or final not stated): >95%
